According to publication PMC2956695:
These are yes or no findings as the source states them, for the method shown. In cells and extracts the contact can be indirect. Some entries that bind do so weakly or less than the wild type.

Sequences of proteins named here, by UniProt entry; tags and fusion partners are left off.
UniProt P87315: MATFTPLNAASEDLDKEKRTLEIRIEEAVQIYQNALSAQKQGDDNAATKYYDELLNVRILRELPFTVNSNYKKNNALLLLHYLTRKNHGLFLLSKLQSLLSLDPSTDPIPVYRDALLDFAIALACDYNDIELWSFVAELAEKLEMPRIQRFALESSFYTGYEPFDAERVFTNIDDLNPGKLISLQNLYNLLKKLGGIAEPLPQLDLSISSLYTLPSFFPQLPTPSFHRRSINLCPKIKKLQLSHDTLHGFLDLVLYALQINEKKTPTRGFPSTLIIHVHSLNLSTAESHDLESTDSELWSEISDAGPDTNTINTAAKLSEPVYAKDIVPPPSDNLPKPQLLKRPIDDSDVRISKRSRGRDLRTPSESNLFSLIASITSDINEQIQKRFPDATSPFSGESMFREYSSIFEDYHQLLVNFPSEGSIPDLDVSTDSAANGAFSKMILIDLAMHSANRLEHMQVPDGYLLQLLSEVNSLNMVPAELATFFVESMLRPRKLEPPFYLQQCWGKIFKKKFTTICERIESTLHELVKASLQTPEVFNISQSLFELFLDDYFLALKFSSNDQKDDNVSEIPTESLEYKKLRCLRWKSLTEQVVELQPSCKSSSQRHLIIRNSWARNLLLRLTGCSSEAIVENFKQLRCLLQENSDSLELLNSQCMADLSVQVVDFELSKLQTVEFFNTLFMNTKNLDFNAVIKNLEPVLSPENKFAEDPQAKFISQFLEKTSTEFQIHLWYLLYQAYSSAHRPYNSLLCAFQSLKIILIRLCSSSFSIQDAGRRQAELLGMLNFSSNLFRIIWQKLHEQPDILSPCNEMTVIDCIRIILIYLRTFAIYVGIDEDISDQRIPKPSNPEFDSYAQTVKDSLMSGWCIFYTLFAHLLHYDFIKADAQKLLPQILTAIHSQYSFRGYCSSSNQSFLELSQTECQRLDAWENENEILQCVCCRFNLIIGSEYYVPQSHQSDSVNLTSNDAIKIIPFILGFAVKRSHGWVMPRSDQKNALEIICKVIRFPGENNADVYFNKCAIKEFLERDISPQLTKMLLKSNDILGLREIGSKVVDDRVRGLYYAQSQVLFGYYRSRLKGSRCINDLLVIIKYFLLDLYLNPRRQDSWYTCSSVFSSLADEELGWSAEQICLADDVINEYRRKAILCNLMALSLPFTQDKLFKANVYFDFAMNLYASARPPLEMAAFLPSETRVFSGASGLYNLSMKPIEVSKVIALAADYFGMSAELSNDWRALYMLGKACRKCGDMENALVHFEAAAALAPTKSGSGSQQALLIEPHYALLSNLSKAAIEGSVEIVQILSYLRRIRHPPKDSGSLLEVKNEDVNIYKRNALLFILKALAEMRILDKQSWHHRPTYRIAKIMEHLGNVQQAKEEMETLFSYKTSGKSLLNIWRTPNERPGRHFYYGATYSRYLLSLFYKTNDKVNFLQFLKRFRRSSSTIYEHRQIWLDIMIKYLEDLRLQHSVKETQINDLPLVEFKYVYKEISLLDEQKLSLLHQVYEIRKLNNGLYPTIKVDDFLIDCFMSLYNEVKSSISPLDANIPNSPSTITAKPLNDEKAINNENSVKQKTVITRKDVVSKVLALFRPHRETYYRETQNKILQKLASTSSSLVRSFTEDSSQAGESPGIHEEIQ

T1: Hip4-TAP (S. pombe) (UniProt O43083)
T1 sequence: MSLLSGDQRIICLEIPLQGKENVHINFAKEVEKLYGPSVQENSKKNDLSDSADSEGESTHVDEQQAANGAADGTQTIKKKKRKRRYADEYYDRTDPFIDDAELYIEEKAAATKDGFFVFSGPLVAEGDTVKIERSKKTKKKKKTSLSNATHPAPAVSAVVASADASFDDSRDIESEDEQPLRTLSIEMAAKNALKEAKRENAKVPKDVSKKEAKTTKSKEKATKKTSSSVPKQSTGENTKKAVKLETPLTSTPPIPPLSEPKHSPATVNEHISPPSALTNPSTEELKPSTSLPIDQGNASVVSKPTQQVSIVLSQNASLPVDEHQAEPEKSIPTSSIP

B1: Hip1-Pk (protein, UniProt P87314 1-932)
chain: MKIKKIPWLGHFDDRGHRLSIFSIHIHPDGSRIATGGLDGTIRIWSTEAINRENENENENEDLPKQLCCMSTHTGTVTSVRFSPNGQYLASGSDDRVVIIWHKEEAIPGLGSTFGSGEKHTENWRSYRRLLGHDNDIQDLCWSYDSQLVVSVGLDSSIIVWNGTTFERLKRIEAHQSHVKGITFDPAGKYFATESDDRTIKVWRVSDFSIEKTITGPFNNSPLSTYFRRPSWSPDGKHIAAPNAMNGPVSCVSIIERGTWTSEINLIGHEGPVEVTAFNPKLFRDKNDKLVCILACGGQDRSLSIWSSALPRPLLSCQNVFQKSIGDVCWSPDGLSLFLCSYDGNVLVCTFEKEEFGDMVSDEEISKALAKYGHGRHGIVLPESAKQLELEETAYAILKKPSSLSTTDPTLVPQSSSTPKSAQKTPQKLPAFLPNRLTAETVDTNKLTASKEQIASPKRPGPSDNGNEIPTKFVQKVTITKEGKKRVAPQLLTTLSATPSTSRLASTQLQHTGSSQLPPQQFSQPINSLPKGGVPILIVGNKTKVNHENDESDQALQEEKIEEGLLKNYYSSLIDSSTSISNINFEAPRYKTNIVHSLNNEQKYVLEVKNGTSEKNPTRIVALENGNTKWMDYLPRPVILVTGSIHFWSIACDDGSLHLYSLTGSRLLPPIMIESKASFLHCNNAYLLCISSSGMVYAWNVVNKTALFTANSLAPILSRVSNNVTIENNSTDIPHVVIASISKEGVPSVTLSTGETYVYSSTMLCWQRITEPWWAIGSREWDSSGLLQSNTQTESQPLKIYEHRTNNVLMDSGRGKLLQKMVADAITEEGYDDFETIVTINHLENKIASARLLKLDDEFLVTSEVYVRLLMHHGLWQKLEEFLGELRTQTKCSIKLSGREVVAKMLVVLRQAVQTDNEFDRANKLIEKYAST
B2: Slm9-Pk (protein, UniProt O74309 1-807)
chain: MHIFVPKLLENHQFSSISSSKDFVAVSAETNVYILSKDFFYPKSSEKRIIQSLNGHKTTHLSFDSPISCIRFTYDGSCLAVATEAGTFLYHSEKWDKAFQVLSGPAYEVCWSQQGHILATSWKQISIYVKDEGLRTETIVKKTEHADSNHQPAVSIEESKEAVESTSQSSEISFKLIKVIEGHHTFVGGLAFDPMGQFLASQSFDHTLKVWKLSTFGVEKSIAKPFEQMPTGNRFLRLSWSPDGAHIASVNAVNEGAYVIAIVQRDTWTYDINLVGHQGPLECATFNPYLYEDPFQKSIIASAAHDGCVSIWNTACARPMAVIHELSCSSFVDLQWSTSGFELYGVSLDGNLMLLQFEESEFGEKMDTIHYPDDLSYFNSSRSKAHVNKNAAADRTTSPTQGQPESPSKSILLRPPPSIASSPESKRRKCPKKFVARPPVPHPTSLYSQIRIGCPYLKPKLVISKSFGTLIVKNHNQLSLLKCTFSNLDGNDCSWFSYLPNAIVLANGTSVFWAVATEDSSIYIYSPAGRLLLPPVVVAATPCFLECCGDFLCCIVSTGLLYIWNIKNFEAIHSPVSTLPLFHSNFSVSKIARGPSIEQFFVTKQGHPVAIMSDGNAFAFIRDSSSWLRVSEGWWMIGSQYWGPLASESNEESPLGFLERCTDEEIIKAGRGRFLQRLVKALMLRQGYDNYEMLVSIRHLENRLMSSAKLDLEYDFRENLILYAKKIAEEGMKDKMDELCKELLGPLRIPHNGIDTVKVGNRLWSPTIAGNNKRNLLKDIIIHTAKYRDMQRITSQYSDLLRRSALL

Molecular target: T1, Hip4-TAP (S. pombe)
Assay: co-IP; IgG-coupled Dynal beads added to 1 mg whole cell extract of hip4-TAP strains, 1 hour at 4°C, HB buffer (25mM Tris-HCl pH 7.5, 15 mM EGTA, 15 mM MgCl2, 0.1% NP40, 1 mM DTT, 0.1 mM NaF); western blotting with anti-Pk, anti-FLAG and PAP

binding	Molecule
binds	Hip3-3XFLAG (from UniProt P87315 1-1630)
binds	B1
binds	B2
